# PubChem BioAssay AID2685 (National Center for Advancing Translational Sciences (NCATS), 2010)
# The list shows a part of the results. Shown are side measurements of this screen, not its main read-out; they come without a call. Compounds called inactive in the main read-out are mostly missing here. Potencies come from curve fits of mixed quality, noted in brackets.
# Experiment: qHTS Assay for Lipid Storage Modulators in Drosophila S3 Cells;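 as to cell number change: cells counted by Cell Tracker Red CMTPX staining in the red channel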
# Conditions: BODIPY lipid droplet fluorescence, 18-24 h; for cell number change: measured here: cell count max response, cells fed with added oleic acid
# Method in brief: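 Laser-scanning cytometry quantifies lipid droplet accumulation (500–530 nm total intensity; droplet/cell object ratio) in oleic acid-fed (400 uM added) Drosophila S3 cells treated with a concentration series. 20 uM Triacsin C defined 100% inhibition.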
# [1] = measured here: cell number channel AC50, cells fed with added oleic acid
# [2] = measured here: lipid fluorescence (Fed channel) AC50, cells fed with added oleic acid
SMILES,cell number change [%],AC50 [1],AC50 [2]
CCC(=O)Nc1nnc(-c2ccco2)o1,-58.6,"1.16 µM [falling, full curve]",
COc1ccc(SN=C2C(C)=CC(=O)C=C2C)cc1,-53,"1.64 µM [falling, partial curve]","23.1 µM [falling, single point]"
Cc1ccc(C(=O)NCCc2nnc3ccc(N4CCCC4)nn23)cc1,-0.54,,"6.51 µM [falling, single point]"
COc1ccc(N=Nc2c(-c3ccc(OC)cc3)[nH]oc2=O)cc1,148,"29.1 µM [rising, single point]","32.6 µM [falling, single point]"
O=c1ccc2cc(S(=O)(=O)N3CCN(c4cc(Cl)ccc4Cl)CC3)ccc2o1,151,"4.11 µM [falling, partial curve]","23.1 µM [rising, single point]"
Cc1[nH]c(=O)[nH]c(=O)c1/C=N/NC(=O)CCNC(=O)OC(C)(C)C,12.4,,"18.4 µM [rising, single point]"
N=c1c(C(=O)NC2CCCCC2)cc2c(=O)n3ccccc3nc2n1Cc1ccccc1,7.79,,"1.64 µM [rising, partial curve]"
Cc1ccc(C)c(C(=O)COC(=O)c2ccccc2N2C(=O)C3C4CCC(C4)C3C2=O)c1 (stereo unspecified),-12.9,,"29.1 µM [falling, single point]"
CCCCn1c(N)c(N(CCOC)C(=O)COC(=O)COc2cccc(C(C)=O)c2)c(=O)[nH]c1=O,-31.6,"0.092 µM [falling, full curve]",
CC(C)CNC(=S)N1CCN(C)CC1,-5.86,,
Nc1cccc(-c2nc3ccc(C(=O)c4ccccc4)cc3[nH]2)c1,-5.17,,"14.6 µM [falling, partial curve]"
N#Cc1c2n(c(=S)n(-c3ccccc3)c1=O)CCCCC2,-1.14,,
N#CCCn1c(C(C#N)(CCC#N)CCC#N)nc2ccccc21,-18.9,,"0.651 µM [falling, full curve, poor fit]"
Cc1ccc(S(=O)(=O)N2CCN(C(=O)CCC(=O)N3CCc4ccccc43)CC2)cc1,-16.2,,"32.6 µM [falling, single point]"
N/C(=N/O)c1nc(N2CCCCC2)nc(N2CCCCC2)n1,-27.8,,"29.1 µM [falling, single point]"
Cc1ccccc1N1C(=O)CC(N2CCC(C(N)=O)CC2)C1=O (stereo unspecified),-16,,"0.0058 µM [falling, full curve, poor fit]"
NC(=NC1CCCCC1)c1ccc([N+](=O)[O-])cc1,,"2.91 µM [falling, partial curve]","1.84 µM [falling, partial curve]"
O=C(CSc1nnc(-c2ccncc2)o1)Nc1nncs1,11.5,,"6.51 µM [rising, partial curve, poor fit]"
COc1cc(-c2cc(N)n(S(=O)(=O)c3ccccc3)n2)cc(OC)c1OC,79.8,"6.51 µM [rising, full curve]","3.66 µM [rising, partial curve]"
O=C(CN(C(=O)CCC(=O)Nc1ccccn1)c1ccc(F)cc1)NCCc1ccccc1,11.3,,
CC(C)c1ccc(-c2c(C#N)c(N)nc(SCC(=O)N3CCCCC3)c2C#N)cc1,16.4,,"3.26 µM [rising, partial curve]"

SMILES,cell number change [%],AC50 [1],AC50 [2]
O=C(NCCN1CCOCC1)c1ccc(Cl)cc1,-32,"32.6 µM [falling, single point]",
COc1cc(CNCc2ccccn2)ccc1OCc1ccc(Cl)c(Cl)c1,-0.678,,
CCN1CCCC1CNC(=O)c1ccc2c(c1)N(Cc1cccc(Cl)c1)C(=O)c1ccccc1S2(=O)=O (stereo unspecified),9.35,,"29.1 µM [rising, single point]"
Cc1[nH]c2ccccc2c1/C=N/n1cnnc1,-10.1,,
O=C(NC(=S)Nc1ccc(S(=O)(=O)Nc2ccccc2)cc1)C1CC1,-0.318,,
Cc1cccc(C)c1NC(=O)COC(=O)c1c2c(nc3ccccc13)/C(=C\c1ccc3c(c1)OCO3)CCC2,-57.4,"32.6 µM [falling, single point]","0.146 µM [rising, full curve, poor fit]"
CCCS(=O)(=O)N1CCCC(C(=O)NCCN2CCCCC2C)C1 (stereo unspecified),26.9,,"18.4 µM [rising, single point]"
COc1ccc2cc3cc(C(=O)NCc4cccs4)oc3nc2c1,3.78,"0.651 µM [rising, full curve, poor fit]","0.58 µM [rising, full curve]"
O=C(CN1C(=O)NC(Cc2ccccc2)C1=O)Nc1ccc(OC(F)(F)F)cc1 (stereo unspecified),,,"18.4 µM [falling, single point]"
COc1ccc(Nc2nc(N3CCCC3)c3ccccc3n2)cc1,-44.3,"32.6 µM [falling, single point]",
CCOC(=O)c1c(C)[nH]c(C)c1S(=O)(=O)Nc1ccc(CN2CCCCC2)cc1,-4.96,,"20.6 µM [falling, partial curve, poor fit]"
Cc1ccc(NC(=O)COc2cccc3ccc(C)nc23)c(Br)c1,4.1,,
Cc1ccc(/C=C(\C#N)C(=O)Nc2cccc3ncccc23)o1,-44.7,"20.6 µM [falling, partial curve, poor fit]","14.6 µM [falling, partial curve]"
COc1ccc(NC(=O)CCN2C(=O)C3CC=CCC3C2=O)cc1S(=O)(=O)N1CCCCC1 (stereo unspecified),-17.5,"0.291 µM [falling, full curve, poor fit]",
CC12CCC(=O)N1C(C(=O)Nc1ccc(SC(F)F)cc1)CS2 (stereo unspecified),16.7,,"23.1 µM [rising, single point]"
Cc1cc(Cl)ccc1OCCCC(=O)NO,-32.1,"0.731 µM [falling, full curve]","1.3 µM [falling, full curve]"
NS(=O)(=O)c1ccc(NC(=O)c2cc(-c3cccs3)nc3ccccc23)cc1,-16,,"13 µM [falling, partial curve, poor fit]"
COc1ccccc1NS(=O)(=O)c1ccc2c(c1)N(C(C)=O)CC(C)S2 (stereo unspecified),23.6,,
O=C(NNC(=O)c1ccccc1[N+](=O)[O-])c1ccc(NS(=O)(=O)c2cccs2)cc1,1.19,,"1.46 µM [rising, full curve, poor fit]"
Cc1ccc(C(=O)N2CCc3ccccc32)cc1[N+](=O)[O-],17.5,,
CN(C)S(=O)(=O)c1cccc(NC(=O)c2cccc(S(=O)(=O)N3CCc4ccccc43)c2)c1,-10.8,,"1.03 µM [falling, partial curve, poor fit]"

# Part of the list above, tab-delimited:
SMILES	cell number change [%]	AC50 [1]	AC50 [2]
COc1ccc2cc3cc(C(=O)NCc4cccs4)oc3nc2c1	3.78	0.651 µM [rising, full curve, poor fit]	0.58 µM [rising, full curve]
O=C(CN1C(=O)NC(Cc2ccccc2)C1=O)Nc1ccc(OC(F)(F)F)cc1 (stereo unspecified)			18.4 µM [falling, single point]
COc1ccc(Nc2nc(N3CCCC3)c3ccccc3n2)cc1	-44.3	32.6 µM [falling, single point]	
CCOC(=O)c1c(C)[nH]c(C)c1S(=O)(=O)Nc1ccc(CN2CCCCC2)cc1	-4.96		20.6 µM [falling, partial curve, poor fit]

# Next part

SMILES,cell number change [%],AC50 [1],AC50 [2]
COc1ccc(NC2CCCN(C(=O)CCc3scnc3C)C2)cc1 (stereo unspecified),27.2,,"3.26 µM [rising, full curve, poor fit]"
Cc1cc(NCC2CCCCC2)nc2ccccc12,,,"0.326 µM [falling, full curve, poor fit]"
CCOC(=O)c1nn(-c2ccccc2C)c2nc(-c3ccc(Cl)cc3)c(C#N)c(=O)n12,5.96,"0.651 µM [falling, single point]",
N#Cc1cccc(OCC(=O)NC(=O)NCc2ccccc2)c1,-0.631,"0.58 µM [falling, single point]",
COC(=O)CC1SCCNC1=O (stereo unspecified),-19.8,,
CCOc1cc(/C=C2\SC(=O)N(CC(=O)Nc3ccccc3F)C2=O)cc([N+](=O)[O-])c1O,0.241,,"0.731 µM [falling, full curve, poor fit]"
C=CCOC(=O)C1=C(C)Nc2ncnn2C1c1cc(Br)ccc1F (stereo unspecified),-8.88,,
CCCc1nc(SCC(=O)Nc2ccccc2OC)c2c(=O)n(C)c(=O)n(C)c2n1,,"0.103 µM [rising, full curve, poor fit]",
Cc1nc2ccc(NC(=O)c3cc([N+](=O)[O-])cc([N+](=O)[O-])c3Cl)cc2s1,-70.1,"4.11 µM [falling, full curve]","2.91 µM [falling, full curve]"
O=C(CC1CCCCC1)N=C1SC2CS(=O)(=O)CC2N1c1ccccc1 (stereo unspecified),-6.46,,"0.731 µM [falling, full curve, poor fit]"
CN1CCN(C(=O)c2cn(-c3ccccc3)nc2-c2cccs2)CC1,-79.6,,
Cc1cccc(OCC(=O)Nc2cccc(O)c2)c1,23.2,,
Cc1ccc(C(=O)CN(C(=O)c2ccc(Cl)cc2)N2C(=O)c3ccccc3C2=O)cc1,84.8,"23.1 µM [rising, single point]",
COc1ccc(COc2cc(-c3cccc(OC)c3)nc3ccc(N)cc23)cc1,44.5,"16.4 µM [rising, partial curve, poor fit]","0.231 µM [rising, full curve]"
O=C(O)C1CC(=O)N(c2ccc(F)cc2)C1 (stereo unspecified),-19.8,,"2.91 µM [falling, full curve]"
COC(=O)c1cc(Br)c(=O)n(-c2ccc(C(C)=O)cc2)c1,-34.5,"29.1 µM [falling, single point]","29.1 µM [falling, single point]"
CCOc1ccc(S(=O)(=O)N2CCCC(C(=O)NCc3ccccn3)C2)cc1C (stereo unspecified),3.78,,"0.116 µM [rising, full curve]"
CCOc1ccccc1N1CCN(CC(O)COc2ccc3c(C)cc(=O)oc3c2)CC1 (stereo unspecified),,,"6.51 µM [rising, single point]"
CCOCCC(=O)Nc1nnc(CCc2ccccc2)s1,-4.56,,"29.1 µM [rising, single point]"
